The results in this text go back to publication PMC7876134.

Amino acid sequences for entries named in this document (tags omitted).
UniProt P62258: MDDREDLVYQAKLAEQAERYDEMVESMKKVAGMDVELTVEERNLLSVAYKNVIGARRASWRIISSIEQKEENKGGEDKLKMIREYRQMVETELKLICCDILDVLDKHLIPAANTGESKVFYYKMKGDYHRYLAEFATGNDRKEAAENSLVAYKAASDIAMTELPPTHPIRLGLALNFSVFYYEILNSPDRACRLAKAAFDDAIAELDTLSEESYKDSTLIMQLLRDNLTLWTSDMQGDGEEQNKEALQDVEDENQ
UniProt Q14258: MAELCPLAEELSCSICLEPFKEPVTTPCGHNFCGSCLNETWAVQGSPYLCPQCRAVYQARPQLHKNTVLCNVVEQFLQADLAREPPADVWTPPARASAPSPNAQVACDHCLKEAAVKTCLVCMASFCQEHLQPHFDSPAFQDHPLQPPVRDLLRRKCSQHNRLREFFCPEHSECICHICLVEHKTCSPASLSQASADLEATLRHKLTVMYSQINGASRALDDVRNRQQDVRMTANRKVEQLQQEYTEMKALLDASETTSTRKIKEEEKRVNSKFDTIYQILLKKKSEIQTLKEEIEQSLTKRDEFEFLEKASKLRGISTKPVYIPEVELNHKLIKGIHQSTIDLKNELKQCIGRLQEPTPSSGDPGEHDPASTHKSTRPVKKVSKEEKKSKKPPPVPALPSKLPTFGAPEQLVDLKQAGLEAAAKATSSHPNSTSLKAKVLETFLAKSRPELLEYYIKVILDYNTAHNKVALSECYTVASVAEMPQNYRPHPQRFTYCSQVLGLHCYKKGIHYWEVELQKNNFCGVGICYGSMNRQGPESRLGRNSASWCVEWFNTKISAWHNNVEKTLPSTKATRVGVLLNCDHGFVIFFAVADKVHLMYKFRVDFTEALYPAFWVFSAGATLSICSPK
UniProt P30613: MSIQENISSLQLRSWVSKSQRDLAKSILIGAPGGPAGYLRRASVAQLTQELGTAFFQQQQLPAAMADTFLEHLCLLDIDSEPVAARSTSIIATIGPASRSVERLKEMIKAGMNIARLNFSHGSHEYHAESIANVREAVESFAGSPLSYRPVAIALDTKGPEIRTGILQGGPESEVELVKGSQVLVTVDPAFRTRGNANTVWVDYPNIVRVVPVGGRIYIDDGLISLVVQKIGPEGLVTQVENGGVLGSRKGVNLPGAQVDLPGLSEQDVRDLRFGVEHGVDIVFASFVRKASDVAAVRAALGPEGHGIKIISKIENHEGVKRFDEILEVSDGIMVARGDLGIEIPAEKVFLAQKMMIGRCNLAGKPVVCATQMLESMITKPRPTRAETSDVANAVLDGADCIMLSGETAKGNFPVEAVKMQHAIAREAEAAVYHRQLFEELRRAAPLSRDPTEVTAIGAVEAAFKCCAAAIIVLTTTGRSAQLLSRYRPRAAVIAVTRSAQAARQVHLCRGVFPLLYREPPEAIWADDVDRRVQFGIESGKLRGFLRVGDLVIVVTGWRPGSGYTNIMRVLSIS
UniProt P21333: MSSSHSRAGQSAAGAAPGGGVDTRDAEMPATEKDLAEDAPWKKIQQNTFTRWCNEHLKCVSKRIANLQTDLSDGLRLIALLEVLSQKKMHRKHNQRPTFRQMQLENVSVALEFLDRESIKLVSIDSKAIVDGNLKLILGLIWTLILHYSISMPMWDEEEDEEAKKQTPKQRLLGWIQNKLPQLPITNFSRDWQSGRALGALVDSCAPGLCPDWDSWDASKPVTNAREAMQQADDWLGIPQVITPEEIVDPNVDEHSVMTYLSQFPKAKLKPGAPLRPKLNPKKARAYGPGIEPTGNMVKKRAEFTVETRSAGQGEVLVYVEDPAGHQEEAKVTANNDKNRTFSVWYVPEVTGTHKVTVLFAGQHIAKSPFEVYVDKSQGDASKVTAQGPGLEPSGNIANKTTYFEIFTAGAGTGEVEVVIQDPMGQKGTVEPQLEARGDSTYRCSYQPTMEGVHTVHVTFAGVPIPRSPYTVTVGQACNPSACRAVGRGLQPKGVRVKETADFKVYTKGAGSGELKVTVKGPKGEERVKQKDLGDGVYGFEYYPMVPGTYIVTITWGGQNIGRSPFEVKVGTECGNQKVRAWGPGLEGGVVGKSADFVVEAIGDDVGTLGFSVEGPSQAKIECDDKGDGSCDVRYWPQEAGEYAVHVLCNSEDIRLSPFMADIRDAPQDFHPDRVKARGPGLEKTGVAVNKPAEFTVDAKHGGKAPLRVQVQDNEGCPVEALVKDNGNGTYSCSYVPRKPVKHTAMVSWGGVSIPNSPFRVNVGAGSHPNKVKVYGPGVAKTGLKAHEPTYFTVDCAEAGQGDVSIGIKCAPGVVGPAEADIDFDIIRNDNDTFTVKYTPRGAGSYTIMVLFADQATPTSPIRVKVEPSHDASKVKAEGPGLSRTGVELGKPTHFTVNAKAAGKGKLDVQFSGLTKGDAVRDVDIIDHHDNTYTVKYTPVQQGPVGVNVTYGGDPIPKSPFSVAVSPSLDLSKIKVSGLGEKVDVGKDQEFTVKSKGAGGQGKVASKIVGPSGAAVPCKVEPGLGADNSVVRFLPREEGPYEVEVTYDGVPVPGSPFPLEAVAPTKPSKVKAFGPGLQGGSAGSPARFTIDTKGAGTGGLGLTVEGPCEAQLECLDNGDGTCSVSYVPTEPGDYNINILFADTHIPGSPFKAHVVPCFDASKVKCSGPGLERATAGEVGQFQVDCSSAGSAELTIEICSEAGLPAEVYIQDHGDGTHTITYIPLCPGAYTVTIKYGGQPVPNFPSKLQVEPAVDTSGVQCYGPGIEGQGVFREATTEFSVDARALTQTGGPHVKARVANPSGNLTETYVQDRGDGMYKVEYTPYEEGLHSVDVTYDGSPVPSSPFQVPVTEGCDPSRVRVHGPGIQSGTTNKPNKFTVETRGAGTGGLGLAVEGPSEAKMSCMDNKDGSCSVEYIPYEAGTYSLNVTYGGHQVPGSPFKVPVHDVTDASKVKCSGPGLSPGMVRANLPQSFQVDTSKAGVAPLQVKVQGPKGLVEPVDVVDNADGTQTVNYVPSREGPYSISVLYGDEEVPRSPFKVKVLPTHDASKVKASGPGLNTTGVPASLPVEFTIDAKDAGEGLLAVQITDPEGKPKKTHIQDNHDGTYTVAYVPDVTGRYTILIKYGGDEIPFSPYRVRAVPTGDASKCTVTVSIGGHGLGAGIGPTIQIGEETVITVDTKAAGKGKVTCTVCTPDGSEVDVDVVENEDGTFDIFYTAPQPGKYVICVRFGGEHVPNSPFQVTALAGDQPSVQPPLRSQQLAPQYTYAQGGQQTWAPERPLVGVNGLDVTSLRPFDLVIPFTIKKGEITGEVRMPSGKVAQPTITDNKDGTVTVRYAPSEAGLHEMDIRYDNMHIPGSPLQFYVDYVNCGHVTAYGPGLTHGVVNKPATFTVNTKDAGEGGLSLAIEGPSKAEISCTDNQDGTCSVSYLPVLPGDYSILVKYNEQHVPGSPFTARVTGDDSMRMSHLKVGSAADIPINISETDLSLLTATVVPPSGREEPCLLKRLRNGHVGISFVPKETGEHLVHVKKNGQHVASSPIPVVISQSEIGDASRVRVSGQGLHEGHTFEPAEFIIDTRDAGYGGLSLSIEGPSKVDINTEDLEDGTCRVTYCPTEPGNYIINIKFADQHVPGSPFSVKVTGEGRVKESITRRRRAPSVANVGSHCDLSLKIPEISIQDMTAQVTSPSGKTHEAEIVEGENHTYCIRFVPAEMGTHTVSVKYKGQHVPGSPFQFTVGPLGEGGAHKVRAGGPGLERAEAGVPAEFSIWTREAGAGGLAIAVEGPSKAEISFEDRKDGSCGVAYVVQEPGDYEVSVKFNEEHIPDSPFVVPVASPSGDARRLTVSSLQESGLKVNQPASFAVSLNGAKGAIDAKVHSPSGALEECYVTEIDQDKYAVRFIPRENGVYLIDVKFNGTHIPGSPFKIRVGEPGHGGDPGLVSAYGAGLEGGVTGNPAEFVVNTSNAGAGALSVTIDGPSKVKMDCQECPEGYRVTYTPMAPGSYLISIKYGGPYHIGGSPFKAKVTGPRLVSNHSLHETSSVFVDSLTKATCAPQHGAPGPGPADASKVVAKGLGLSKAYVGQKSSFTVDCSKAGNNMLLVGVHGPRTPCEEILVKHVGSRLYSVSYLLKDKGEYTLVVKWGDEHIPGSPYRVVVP
UniProt P31946: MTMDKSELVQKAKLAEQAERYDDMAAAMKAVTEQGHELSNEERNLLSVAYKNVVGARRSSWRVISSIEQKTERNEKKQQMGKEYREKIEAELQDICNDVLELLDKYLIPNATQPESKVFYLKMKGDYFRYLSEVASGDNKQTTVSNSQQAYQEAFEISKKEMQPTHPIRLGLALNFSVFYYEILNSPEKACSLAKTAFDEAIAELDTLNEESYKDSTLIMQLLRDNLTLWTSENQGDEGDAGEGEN

The assay has as its target T1, 3 × FLAG-labeled lanthionine synthetase C-like protein 2 (LANCL2) (UniProt Q9NS86).
T1 sequence: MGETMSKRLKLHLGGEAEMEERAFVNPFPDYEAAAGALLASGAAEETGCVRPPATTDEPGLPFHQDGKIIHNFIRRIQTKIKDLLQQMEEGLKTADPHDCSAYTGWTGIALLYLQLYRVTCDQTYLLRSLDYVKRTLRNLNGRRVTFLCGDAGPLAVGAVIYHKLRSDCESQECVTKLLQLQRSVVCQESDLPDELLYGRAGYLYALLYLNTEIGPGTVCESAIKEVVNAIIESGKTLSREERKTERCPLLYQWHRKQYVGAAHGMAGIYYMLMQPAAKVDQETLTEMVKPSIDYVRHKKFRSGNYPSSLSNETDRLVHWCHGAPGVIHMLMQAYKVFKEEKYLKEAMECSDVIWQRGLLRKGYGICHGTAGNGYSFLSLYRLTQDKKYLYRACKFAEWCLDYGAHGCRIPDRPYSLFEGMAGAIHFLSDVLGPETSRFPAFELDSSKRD
Put plainly: affinity purification with mass spectrometry; 3xFLAG-LANCL2 captured from infected PC9 cells on anti-FLAG M2 beads; proteins resolved on 10% SDS-PAGE, Coomassie stained, trypsin digested, nano-LC-MS/MS (LTQ Velos-Orbitrap); negative control GV491 lentivirus.

Results are given in words; binding and its absence hold for the method and conditions named. Binding seen in cells or lysates may run through a third protein. Here binding means that the protein was enriched with, or labelled near, the bait; the list need not be complete. Sequences can lack the tags named with a protein.

On to YWHAE (from UniProt P62258 1-255), for which the binding result is on record as “binds”.
Turning to TRIM25 (from UniProt Q14258 1-630), the binding entry is listed as “binds”.
Turning to PKLR (from UniProt P30613 1-574), the binding entry is listed as “binds”.
“Filamin A (FLNA) (from UniProt P21333 1-2647)”: the binding result is on record as “binds”.
For YWHAB (from UniProt P31946 1-246), the binding entry is “binds”.

B1: glutathione S-transferase Mu 3 (GSTM3) (protein, UniProt P21266 1-225)
chain: MSCESSMVLGYWDIRGLAHAIRLLLEFTDTSYEEKRYTCGEAPDYDRSQWLDVKFKLDLDFPNLPYLLDGKNKITQSNAILRYIARKHNMCGETEEEKIRVDIIENQVMDFRTQLIRLCYSSDHEKLKPQYLEELPGQLKQFSMFLGKFSWFAGEKLTFVDFLTYDILDQNRIFDPKCLDEFPNLKAFMCRFEALEKIAAYLQSDQFCKMPINNKMAQWGNKPVC
On to B1, for which the binding entry is on record as “binds”.
